Percent effect of library compounds

Sequences of proteins named here, by UniProt entry; tags and fusion partners are left off.
UniProt P9WPC5, whole entry: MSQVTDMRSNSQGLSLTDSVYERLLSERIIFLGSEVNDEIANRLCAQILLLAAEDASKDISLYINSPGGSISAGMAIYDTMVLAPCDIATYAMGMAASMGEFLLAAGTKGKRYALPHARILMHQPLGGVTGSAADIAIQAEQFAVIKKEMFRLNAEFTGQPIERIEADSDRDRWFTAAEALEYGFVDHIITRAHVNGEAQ
UniProt P9WPC3, whole entry partner: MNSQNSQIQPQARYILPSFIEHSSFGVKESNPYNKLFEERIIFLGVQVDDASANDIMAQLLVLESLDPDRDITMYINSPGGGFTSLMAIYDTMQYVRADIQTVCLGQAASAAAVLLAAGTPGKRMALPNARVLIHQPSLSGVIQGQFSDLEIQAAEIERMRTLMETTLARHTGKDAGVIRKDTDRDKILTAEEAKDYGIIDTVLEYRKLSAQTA
UniProt P9WNZ1, whole entry: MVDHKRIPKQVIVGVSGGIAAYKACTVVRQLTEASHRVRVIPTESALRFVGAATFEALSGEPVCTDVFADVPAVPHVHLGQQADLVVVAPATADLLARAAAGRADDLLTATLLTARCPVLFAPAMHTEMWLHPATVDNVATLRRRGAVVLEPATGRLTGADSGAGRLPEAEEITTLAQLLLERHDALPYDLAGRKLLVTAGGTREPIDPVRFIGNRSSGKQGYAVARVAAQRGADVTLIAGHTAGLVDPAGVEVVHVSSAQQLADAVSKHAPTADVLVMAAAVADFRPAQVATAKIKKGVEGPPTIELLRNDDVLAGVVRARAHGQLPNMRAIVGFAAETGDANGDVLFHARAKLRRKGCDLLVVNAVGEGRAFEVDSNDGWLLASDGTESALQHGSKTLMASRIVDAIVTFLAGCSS

A: 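Assay of Toxoplasma gondii numbers, read through their beta-galactosidase reporter with a colour substrate. Tested at 10 µM. The record gives no direction; the compounds picked for IC50 retests had high values, so higher reads as fewer parasites. Of about 67,000 compounds tested this way, about 260 (0.38%) reached 50% or more in at least one test.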
B: 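ClpP1P2, Mycobacterium tuberculosis (UniProt P9WPC5 and UniProt P9WPC3). Protease assay of ClpP1P2, read by the AMC dye that it sets free. Tested at 50 µM. Direction is inferred from only a few compounds that gave an IC50; most scored high, so higher reads as stronger inhibition. Most other retested compounds had strongly negative values. Size under these conditions: about 69,000 compounds, about 10 of them at 50% or above in at least one test.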
C: 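Whole-parasite assay of Trypanosoma brucei over 72 hours; the read-out is not stated. Compounds at 30 µM. Higher reads as stronger inhibition (inferred: compounds with an IC50 in retests scored well above the rest). Values scatter widely below zero; nearly all retest evidence comes from the higher of the two concentrations used. Of about 64,000 compounds tested this way, about 940 (1.5%) reached 50% or more in at least one test.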
D: 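Enzyme assay of CoaBC with a phosphate dye (Biomol Green) read at 650 nm. Target: Coenzyme A biosynthesis protein CoaBC, Mycobacterium tuberculosis (UniProt P9WNZ1). Concentration: 30 µM. Higher reads as stronger inhibition, judged from the few compounds that gave an IC50. Most strong results did not repeat in a second test. Size under these conditions: about 67,000 compounds, about 40 of them at 50% or above in at least one test.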

Values are the deposited “Percent Effect”, in %.
The controls that fix the scale are not given in the record; negative values are as filed.
This is an unselected part of the compounds tested.

Cc1ccc(N2CCN(C(=O)[C@@H]3CCC(=O)N3)CC2=O)cc1 read A: -14.08%; B: -6.475%; C: -27.61%; D: 1.214%.
Cc1cc(Oc2ccccc2C)nc(C2CCCN2)n1 (centres undefined) read A: -2.465%; B: -4.003%; C: -22.51%; D: 2.822%.
Cc1csc(Nc2nccnc2C2CCCN2S(C)(=O)=O)n1 (centres undefined) read A: 9.968%; B: 4.103%; C: -8.362%; D: 2.67%.
COCCN1CC(O)CN(C(=O)c2cccc(C(F)(F)F)c2)CC1=O (centres undefined) read A: 6.587%; B: 7.048%; C: -34.88%; D: 2.179%.
Cc1ccsc1C(CNC(=O)c1cc(=O)c2ccccc2[nH]1)N(C)C (centres undefined) read A: 13.42%; B: -9.289%; C: -64.04%; D: -15.99%.
COc1cc(CNCCn2cc(C)cn2)cc2c1OCCO2 read A: -28.03%; B: -25.46%; D: 3.325%.
COc1ccc(OC)c2c(C)cc(N(C)CCO)nc12 read A: 4.937%; B: -3.825%; C: -0.4886%; D: 7.991%.
CCN1CC(C(=O)N2CCN(CCn3cccc3)CC2)CC1=O (centres undefined) read A: -0.9815%; B: 0.1237%; C: -15.65%; D: 7.46%.
[H][C@]12CC[C@]([H])(CN(C3Cc4ccccc4C3)C1)N(C(=O)COCCOC)C2 read A: 1.681%; C: 0.9442%.
Cc1nccn1CCC1CCN(c2ncccn2)CC1 read A: -15.83%; B: -22.42%; D: 0.3727%.
O=C(c1ccccn1)N1CCN(c2cnnc(N3CCCC3)c2)CC1 read A: -26.9%; B: -17.24%; C: -0.4056%; D: 4.598%.
CCc1ncnc2c1CCN(C(=O)c1ccccn1)CC2.O=C(O)C(F)(F)F read A: -2.876%; C: -34.25%.
CCC1=N[C@@]2(CC[C@@H]3CN(S(=O)(=O)CC)C[C@@H]32)C(=O)N1CC(C)C read B: -11.55%; D: 2.915%.
CCN1CCC(NC(=O)c2ccc(F)cc2I)CC1 read A: -23.62%; B: -31.55%; C: 29.33%; D: 1.786%.
CCNC(=O)C1(Cc2ccc(-c3ccccc3)cc2)CCCNC1 (centres undefined) read A: 12.53%; B: 23.78%; D: 18.41%.
COc1ccccc1OCCN1CCC(N2CCNC2=O)CC1 read A: -4.093%; B: 1.827%; C: -41.11%; D: 0.6745%.
O=C1NC2(CCN(Cc3nccs3)CC2)CC1c1ccncc1 (centres undefined) read B: -0.8997%; D: 3.99%.

Once more, the final 2:

- COc1ccccc1OCCN1CCC(N2CCNC2=O)CC1 : A: -4.093%; B: 1.827%; C: -41.11%; D: 0.6745%
- O=C1NC2(CCN(Cc3nccs3)CC2)CC1c1ccncc1 (centres undefined) : B: -0.8997%; D: 3.99%

Source: ChEMBL document CHEMBL3988442, “University of Dundee, Small-Polar-MMV Screening Library” (2021).